# Test results published in the supplement of paper PMC4635364.
# Counter-ions that a name gives are not always drawn. This is one part of the list. Repeats in this data set agree poorly, so a single value says little.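 ReNCell VM, a human fetal ventral-midbrain neural progenitor line, was differentiated without mitogens. Blinded raters scored images stained for doublecortin (early neurons) or tyrosine hydroxylase (dopaminergic neurons) against untreated wells (0 = no change). Scores were averaged across repeats and both raters, and compounds averaging 2 or more were selected as hits for retesting.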
# Columns and labels:
# [1] = test system: ReNCell VM; test: neuronal differentiation score (DCX+ cell fraction vs untreated, manual image score) (score (-3 to 3)); higher = more neuronal differentiation; conditions: 2 uM, 2 weeks
# [2] = test system: ReNCell VM; test: dopaminergic neuron differentiation score (TH+ cell fraction vs untreated, manual image score) (score (0 to 3)); higher = more TH+ dopaminergic neuron differentiation; conditions: 2 uM, 4 weeks, BDNF 10 ng/ml + GDNF 10 ng/ml
smiles,measurement,setting,value
C[C@@]12C(=O)OC(=O)[C@]1(C)[C@H]1CC[C@@H]2O1,neuronal differentiation score,[1]; library: Spectrum,inactive: 0
same,dopaminergic neuron differentiation score,[2]; library: Spectrum,inactive: 0
CC(C)Oc1cccnc1N(C)C1CCN(Cc2ccccc2)CC1,neuronal differentiation score,[1]; library: LOPAC,inactive: 0
same,dopaminergic neuron differentiation score,[2]; library: LOPAC,inactive: 0
Nc1ncn[nH]1,neuronal differentiation score,[1]; library: Spectrum,inactive: 0
same,dopaminergic neuron differentiation score,[2]; library: Spectrum,inactive: 0
Cc1nc(N)sc1CCN [Amthamine dihydrobromide],neuronal differentiation score,[1]; library: Tocriscreen,inactive: 0
same,dopaminergic neuron differentiation score,[2]; library: Tocriscreen,inactive: 0
C[C@H](N)Cc1cnc[nH]1 [(S)-(+)-a-Methylhistamine dihydrobromide],neuronal differentiation score,[1]; library: Tocriscreen,inactive: 0
same,dopaminergic neuron differentiation score,[2]; library: Tocriscreen,inactive: 0
"Clc1ccc(N2CCN(Cc3c[nH]c4ncccc34)CC2)cc1 [L-745,870 trihydrochloride]",neuronal differentiation score,[1]; library: Tocriscreen,inactive: 0
same,dopaminergic neuron differentiation score,[2]; library: Tocriscreen,inactive: 0
COc1cc2c(cc1O)CCN[C@@H]2C,neuronal differentiation score,[1]; library: Spectrum,inactive: 0
same,dopaminergic neuron differentiation score,[2]; library: Spectrum,inactive: 0
COc1cc(C=C(C#N)C#N)cc(O)c1O [Tyrphostin AG 34],neuronal differentiation score,[1]; library: LOPAC,inactive: 0
same,dopaminergic neuron differentiation score,[2]; library: LOPAC,inactive: 0
O=C1CC[C@@]2(O)[C@H]3Cc4ccc(O)c5c4[C@@]2(CCN3CC2CC2)[C@H]1O5,neuronal differentiation score,[1]; library: Spectrum,inactive: 0
same,dopaminergic neuron differentiation score,[2]; library: Spectrum,inactive: 0
O=C(O)/C=C/CO [trans-4-Hydroxycrotonic acid],neuronal differentiation score,[1]; library: Tocriscreen,inactive: 0
same,dopaminergic neuron differentiation score,[2]; library: Tocriscreen,inactive: 0
"COc1ccc2c(c1OC)CN1CCc3cc4c(cc3C1C2)OCO4 (centres undefined) [(d,l)-Tetrahydroberberine]",neuronal differentiation score,[1]; library: Phytochemical,inactive: 0
same,dopaminergic neuron differentiation score,[2]; library: Phytochemical,inactive: 0
CN1CCc2cc3c(c4c2C1Cc1ccccc1-4)OCO3 (centres undefined) [Remerine HCl],neuronal differentiation score,[1]; library: Phytochemical,inactive: 0
same,dopaminergic neuron differentiation score,[2]; library: Phytochemical,inactive: 0
OCc1cnc[nH]1 [4-Imidazolemethanol hydrochloride],neuronal differentiation score,[1]; library: LOPAC,inactive: 0
same,dopaminergic neuron differentiation score,[2]; library: LOPAC,inactive: 0
N[C@@H](Cc1ccc(N(CCCl)CCCl)cc1)C(=O)O,neuronal differentiation score,[1]; library: Spectrum,inactive: 0
same,dopaminergic neuron differentiation score,[2]; library: Spectrum,inactive: 0
c1ccc2sc(C3(N4CCCCC4)CCCCC3)cc2c1 [BTCP maleate],neuronal differentiation score,[1]; library: Tocriscreen,inactive: 0
same,dopaminergic neuron differentiation score,[2]; library: Tocriscreen,inactive: 0
CC(C)(Cc1c[nH]c2ccc(Cl)cc12)NCCOc1ccccc1OCC1CC1,neuronal differentiation score,[1]; library: Tocriscreen,inactive: 0
same,dopaminergic neuron differentiation score,[2]; library: Tocriscreen,inactive: 0
c1cncc([C@@H]2CCCCN2)c1,neuronal differentiation score,[1]; library: Spectrum,inactive: 0
same,dopaminergic neuron differentiation score,[2]; library: Spectrum,inactive: 0
C[C@]12CC[C@H](O)C[C@@H]1CC[C@@H]1[C@@H]2CC[C@]2(C)C(=O)CC[C@@H]12,neuronal differentiation score,[1]; library: Spectrum,inactive: 0
same,dopaminergic neuron differentiation score,[2]; library: Spectrum,inactive: 0
COc1ccc2c(c1)/C(=C/c1cnc[nH]1)C(=O)N2,neuronal differentiation score,[1]; library: LOPAC,inactive: 0
same,dopaminergic neuron differentiation score,[2]; library: LOPAC,inactive: 0
Cc1cc(O)ccc1Cl,neuronal differentiation score,[1]; library: Spectrum,inactive: 0
same,dopaminergic neuron differentiation score,[2]; library: Spectrum,inactive: 0
"C1=CCC(c2cccnc2)NC1 (centres undefined) [1,2,3,6-Tetrahydro-[2,3']bipyridinyl]",neuronal differentiation score,[1]; library: Natural,inactive: 1
same,dopaminergic neuron differentiation score,[2]; library: Natural,inactive: 0
CSC(=S)NCc1c[nH]c2ccccc12 [brassinin],neuronal differentiation score,[1]; library: Natural,inactive: 0
same,dopaminergic neuron differentiation score,[2]; library: Natural,inactive: 0
C[C@]12CCC(=O)C(O)=C1CC[C@@H]1[C@@H]2CC[C@]2(C)C(=O)CC[C@@H]12,neuronal differentiation score,[1]; library: Spectrum,inactive: 0
same,dopaminergic neuron differentiation score,[2]; library: Spectrum,inactive: 0
NC1=NC(=O)C(c2ccccc2)O1 (centres undefined) [deltamine],neuronal differentiation score,[1]; library: Natural,inactive: 0
same,dopaminergic neuron differentiation score,[2]; library: Natural,inactive: 0
C[C@]12CCC(=O)C=C1C=C[C@@H]1[C@@H]2CC[C@@]2(C)[C@H]1CC[C@@]2(O)CCC(=O)O [Canrenoic acid potassium salt],neuronal differentiation score,[1]; library: Prestwick,inactive: 0
same,dopaminergic neuron differentiation score,[2]; library: Prestwick,inactive: 0
COc1cc([C@@H]2c3cc4c(cc3[C@H](O)[C@H]3COC(=O)[C@@H]23)OCO4)cc(OC)c1OC,neuronal differentiation score,[1]; library: Spectrum,inactive: 0
same,dopaminergic neuron differentiation score,[2]; library: Spectrum,inactive: 0
NCC(O)c1ccc(O)cc1 (centres undefined) [Octopamine hydrochloride],neuronal differentiation score,[1]; library: Tocriscreen,inactive: 0
same,dopaminergic neuron differentiation score,[2]; library: Tocriscreen,inactive: 0
C[C@@H]1O[C@@H](O[C@@H]2C=C3CC[C@@H]4[C@H](CC[C@]5(C)[C@@H](c6ccc(=O)oc6)CC[C@]45O)[C@@]3(C)CC2)[C@H](O)[C@H](O)[C@H]1O [Proscillaridin A],neuronal differentiation score,[1]; library: Prestwick,inactive: 0
same,dopaminergic neuron differentiation score,[2]; library: Prestwick,inactive: 0
COc1cc2ccc(=O)oc2c2ccoc12,neuronal differentiation score,[1]; library: Spectrum,inactive: 0
same,dopaminergic neuron differentiation score,[2]; library: Spectrum,inactive: 0
NC(Cc1cc(O)c(O)cc1O)C(=O)O (racemic) [6-Hydroxy-DL-DOPA],neuronal differentiation score,[1]; library: LOPAC,inactive: 0
same,dopaminergic neuron differentiation score,[2]; library: LOPAC,inactive: 0
COc1cc2c(cc1O)C(CCc1ccc(Cl)cc1)N(C)CC2 (centres undefined),neuronal differentiation score,[1]; library: Tocriscreen,inactive: 0
same,dopaminergic neuron differentiation score,[2]; library: Tocriscreen,inactive: 0
CCN1C[C@]2(C)CC[C@H](O)[C@]34C1[C@@H](C[C@H]23)[C@@]1(O)C[C@H](OC)[C@H]2C[C@@H]4[C@@H]1[C@H]2O [Karakoline],neuronal differentiation score,[1]; library: Phytochemical,inactive: 0
same,dopaminergic neuron differentiation score,[2]; library: Phytochemical,inactive: 0
CC(C)[N+](C)(CCC(C(N)=O)(c1ccccc1)c1ccccc1)C(C)C,neuronal differentiation score,[1]; library: Spectrum,inactive: 1
same,dopaminergic neuron differentiation score,[2]; library: Spectrum,inactive: 0
CCCCOC(=O)c1ccccc1C(=O)OCCCC,neuronal differentiation score,[1]; library: Spectrum,inactive: 0
same,dopaminergic neuron differentiation score,[2]; library: Spectrum,inactive: 0
C[N+](C)(C)CC#CCOC(=O)Nc1cccc(Cl)c1,neuronal differentiation score,[1]; library: LOPAC,inactive: 0
same,dopaminergic neuron differentiation score,[2]; library: LOPAC,inactive: 0
Cc1cccc(C)c1NC1=NCCCS1 [Xylazine hydrochloride],neuronal differentiation score,[1]; library: LOPAC,inactive: 0
same,dopaminergic neuron differentiation score,[2]; library: LOPAC,inactive: 0
C#CC(C)(O)CC (centres undefined),neuronal differentiation score,[1]; library: Spectrum,inactive: 0
same,dopaminergic neuron differentiation score,[2]; library: Spectrum,inactive: 0
O=[N+]([O-])O[C@@H]1CO[C@H]2[C@@H]1OC[C@@H]2O [Isosorbide mononitrate],neuronal differentiation score,[1]; library: Prestwick,inactive: 0
same,dopaminergic neuron differentiation score,[2]; library: Prestwick,inactive: 0
C=CCN1C[C@H](C)N([C@H](c2ccc(C(=O)N(CC)CC)cc2)c2cccc(O)c2)C[C@H]1C,neuronal differentiation score,[1]; library: Tocriscreen,inactive: 0
same,dopaminergic neuron differentiation score,[2]; library: Tocriscreen,inactive: 0
N=C(NCc1ccc(Cl)cc1)SCCCc1c[nH]cn1 [Clobenpropit dihydrobromide],neuronal differentiation score,[1]; library: Tocriscreen,inactive: 0
same,dopaminergic neuron differentiation score,[2]; library: Tocriscreen,active: 3
Clc1ccc(N2C[C@H]3CC[C@@H](C2)N3)nn1,neuronal differentiation score,[1]; library: LOPAC,inactive: 0
same,dopaminergic neuron differentiation score,[2]; library: LOPAC,inactive: 0
Cc1[nH]c2ccc(O)cc2c1CCN [2-Methyl-5-hydroxytryptamine maleate],neuronal differentiation score,[1]; library: LOPAC,inactive: 0
same,dopaminergic neuron differentiation score,[2]; library: LOPAC,inactive: 0

# Five entries from above, with bars between the fields:
smiles | measurement | setting | value
OCc1cnc[nH]1 [4-Imidazolemethanol hydrochloride] | neuronal differentiation score | [1]; library: LOPAC | inactive: 0
same | dopaminergic neuron differentiation score | [2]; library: LOPAC | inactive: 0
N[C@@H](Cc1ccc(N(CCCl)CCCl)cc1)C(=O)O | neuronal differentiation score | [1]; library: Spectrum | inactive: 0
same | dopaminergic neuron differentiation score | [2]; library: Spectrum | inactive: 0
c1ccc2sc(C3(N4CCCCC4)CCCCC3)cc2c1 [BTCP maleate] | neuronal differentiation score | [1]; library: Tocriscreen | inactive: 0
